# Results from PubChem BioAssay AID504444 (National Center for Advancing Translational Sciences (NCATS), 2011).
# Screen size: about 360,000 compounds; about 7,500 (2.1%) were called active. The inconclusive results got no clear call from the source; some entries with a clear call stand among them for comparison. Calls come from the whole dose curve; as a rule, active = well fitted inhibition curve with a large enough effect; inconclusive = small, poorly fitted or top-dose-only effect, or effect the other way; inactive = flat fitted curve, though single readings scatter. Potencies beside an inconclusive call are fits to weak or partial responses and may not hold up.
# Experiment: Nrf2 qHTS screen for inhibitors; note: nearly all actives have a fitted effect of over 60% in size
# Settings: A549 ARE-Fluc reporter, luciferase luminescence, 18-24 h; activity change, negative = inhibition: at 46 µM (top of the series)
# Procedure, shortened: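 Nrf2 function is reported as luminescence of an ARE-controlled luciferase in A549 cells. Compounds were tested at several concentrations, and a CellTiter-Fluor read on the same wells flagged cytotoxicity.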
# % is set by controls: 0 for no effect and ±100 for the full control effect; potency is the fitted concentration of half-maximal effect.
Compound,Potency,"activity change, negative = inhibition"
CCCN(CCC)C(=O)c1ccc2nc(-c3ccc(OC)c(OC)c3)c(-c3ccc(OC)c(OC)c3)nc2c1,"inconclusive: 2.06 µM [falling, partial curve]",
O=C(NCc1ccc2c(c1)OCO2)c1cc2n(n1)C(C(F)(F)F)CC(c1ccc3c(c1)OCO3)N2 (stereo unspecified),"inconclusive: 11.6 µM [falling, partial curve]",
O=C(NNC(=O)c1ccc2ccccc2n1)c1ccc(O)cc1,"inconclusive: 9.2 µM [falling, partial curve]",
COc1ccc(C(=O)OCC(=O)N(C)C2CCS(=O)(=O)C2)cc1Br (stereo unspecified),"inconclusive: 18.4 µM [falling, single point]",
CC1CCN(C(=O)CN2C(=O)c3ccccc3S2(=O)=O)CC1,"inconclusive: 32.6 µM [falling, single point]",
CC(=O)c1cc(NC(=O)c2ccc([N+](=O)[O-])cc2)c(=O)oc1C,"inconclusive: 32.6 µM [activator, partial curve, poor fit]",
Cc1cc(C)n(-c2nc(NCCN(C)C)c3c4c(sc3n2)COC(C)(C)C4)n1,"inconclusive: 8.2 µM [activator, partial curve, poor fit]",
N#Cc1ccc(-c2ccc(F)cc2)nc1Sc1ccccc1,"inconclusive: 23.1 µM [falling, single point]",
CCC(C)(C)C1CCc2[nH]nc(C(=O)N/N=C(\C)c3ccco3)c2C1 (stereo unspecified),"inconclusive: 2.59 µM [activator, full curve]",
CCN(CC)CCC(c1cc(OC)c(OC)c(OC)c1)c1c(OC)cc(OC)c2ccc(=O)oc12 (stereo unspecified),inactive,
CN1/C(=N\O)c2cccc3cccc1c23,"inconclusive: 18.4 µM [falling, partial curve, poor fit]",
CC1=N/C(=C\c2ccc(OC(C)C)cc2)C(=O)N1c1ccc(C(=O)O)cc1,"inconclusive: 14.6 µM [falling, single point]",
CCOc1ccccc1OCC(=O)Nc1nc2ccccc2[nH]1,,inactive: -0.088%
O=C(N/N=C/c1c(O)ccc2ccccc12)c1ccc(Br)o1,"inconclusive: 18.4 µM [falling, single point]",
O=C(NCCN1CCN(c2ccccc2)CC1)C1CCN(S(=O)(=O)c2cccs2)CC1,"inconclusive: 23.1 µM [falling, single point]",
CCN(C(=O)C1CCN(c2ncnc3c2nc2n3CCCCC2)CC1)c1cccc(Cl)c1,,inactive: -10.4%
CCC(NC(=O)CNC(=O)c1ccc2c(c1)OCO2)c1ccc(Br)cc1 (stereo unspecified),"inconclusive: 4.61 µM [falling, single point]",
COC(=O)c1cn(NC(=O)Cc2ccc(Cl)cc2)c(=O)c2ccccc12,,inactive: 9.45%
Cc1cccc(N2CCN(c3nc4ccc(C)cc4n4cnnc34)CC2C)c1 (stereo unspecified),"inconclusive: 29.1 µM [falling, single point]",
COc1cccc(CNC(=O)Cn2cccc2C(=O)c2ccccc2C)c1,"inconclusive: 25.9 µM [activator, single point]",
COc1ccc(-n2ccnc(NCc3ccc(C)cc3)c2=O)cc1OC,"inconclusive: 23.1 µM [activator, single point]",
O=C(NC1CCCCC1)N1CCc2ccccc21,"inconclusive: 11.6 µM [activator, partial curve]",

# Nothing new here: entries from further up.
Compound,Potency,"activity change, negative = inhibition"
Cc1cc(C)n(-c2nc(NCCN(C)C)c3c4c(sc3n2)COC(C)(C)C4)n1,"inconclusive: 8.2 µM [activator, partial curve, poor fit]",
N#Cc1ccc(-c2ccc(F)cc2)nc1Sc1ccccc1,"inconclusive: 23.1 µM [falling, single point]",
CCC(C)(C)C1CCc2[nH]nc(C(=O)N/N=C(\C)c3ccco3)c2C1 (stereo unspecified),"inconclusive: 2.59 µM [activator, full curve]",
CCN(CC)CCC(c1cc(OC)c(OC)c(OC)c1)c1c(OC)cc(OC)c2ccc(=O)oc12 (stereo unspecified),inactive,

# (more compounds)

Compound,Potency,"activity change, negative = inhibition"
COc1ccccc1NS(=O)(=O)c1cccc(NC(=O)Nc2ccc(Cl)cc2)c1,"inconclusive: 18.4 µM [falling, single point]",
Cc1ccc(C(=O)N2CCN(Cc3ccc4c(c3)OCO4)CC2)o1,,inactive: -2.62%
CC1(C)Cc2ccccc2/C(=C/C(=O)N2CCCCCC2)N1,active: 25.9 µM,
O=C(COc1ccc(Cl)cc1)N1CCN(S(=O)(=O)c2ccc(Cl)cc2)CC1,"inconclusive: 18.4 µM [falling, single point]",
CC(C)Cc1cc(C(=O)N2CCN(c3ccc(F)cc3)CC2)no1,"inconclusive: 29.1 µM [falling, single point]",
Cc1nn(Cc2ccc([N+](=O)[O-])cc2)c(=O)n1N(C)c1ncc(C(F)(F)F)cc1Cl,"inconclusive: 22.4 µM [falling, partial curve, poor fit]",
N#C/C(=C\c1ccc[nH]1)C(=O)c1ccccc1,,inactive: -1.97%
COc1ccc(N(CC(=O)N2CCN(c3ccccc3F)CC2)S(=O)(=O)c2c(C)n[nH]c2C)cc1,"inconclusive: 16.4 µM [falling, single point]",
CCN(CC(=O)NCc1cccs1)c1ccc(S(=O)(=O)N2CCOCC2)cn1,"inconclusive: 23.1 µM [activator, partial curve, poor fit]",
Cc1nn(-c2ccccc2)c(Cl)c1C(=O)NCC(C)c1ccccc1 (stereo unspecified),"inconclusive: 29.1 µM [activator, partial curve, poor fit]",
Cc1occc1-c1nnc(SCC(=O)N2CCN(c3ccccc3)CC2)n1C,,inactive: -15.7%
O=C(Nc1cccc(-n2cnnn2)c1)c1ccc(OC(F)(F)F)cc1,"inconclusive: 6.51 µM [falling, full curve]",
O=C(NNC(=S)Nc1cccc2ccccc12)c1cccc(Br)c1,"inconclusive: 29.1 µM [falling, single point]",
CCCC/C(O)=C1\C(=O)CC(C)(C)CC1=Nc1ccccc1OC,"inconclusive: 25.9 µM [falling, single point]",
O=C(C1CCN(S(=O)(=O)c2cccc3cccnc23)CC1)N1CCN(c2ccc(Cl)cc2)CC1,"inconclusive: 20.6 µM [falling, single point]",
COc1ccc(C(CCNCc2ccc(N(C)C)cc2)c2ccccc2)cc1 (stereo unspecified),,inactive: 1.7%
O=C(Nc1ccc2nc(-c3cccnc3)[nH]c2c1)c1ccccc1F,"inconclusive: 1.64 µM [falling, full curve]",
O=C(CN(Cc1ccco1)Cc1ccco1)Nc1cc(S(=O)(=O)N2CCCCC2)ccc1Cl,"inconclusive: 29.1 µM [falling, single point]",
Cn1nnc(NC(=S)NC(=O)c2ccc(-c3ccc(Br)cc3)o2)n1,"inconclusive: 16.4 µM [activator, partial curve, poor fit]",
CN(C)c1nc(/C=C(\C#N)C(N)=O)c(Cl)n1-c1ccc(F)cc1,"inconclusive: 29.1 µM [falling, single point]",
CS(=O)(=O)N(Cc1ccc(Cl)cc1)c1ccc(C(=O)NCC2CCCO2)cc1 (stereo unspecified),"inconclusive: 18.4 µM [falling, single point]",
C=CCN1C(=O)C(C)NC1=S (stereo unspecified),"inconclusive: 2.91 µM [falling, single point]",

# Three structures already listed, sorted by count of non-hydrogen atoms, rising:
Compound,Potency,"activity change, negative = inhibition"
C=CCN1C(=O)C(C)NC1=S (stereo unspecified),"inconclusive: 2.91 µM [falling, single point]",
CCCC/C(O)=C1\C(=O)CC(C)(C)CC1=Nc1ccccc1OC,"inconclusive: 25.9 µM [falling, single point]",
COc1ccccc1NS(=O)(=O)c1cccc(NC(=O)Nc2ccc(Cl)cc2)c1,"inconclusive: 18.4 µM [falling, single point]",

# (cont.)

Compound,Potency,"activity change, negative = inhibition"
O=C1c2ccccc2C(=O)c2c1oc(C(F)(F)F)c2C(=O)c1ccccc1,"inconclusive: 18.4 µM [falling, single point]",
CC1CN(S(=O)(=O)c2cc(C(=O)NCCC3=CCCCC3)ccc2Cl)CC(C)O1 (stereo unspecified),active: 8.2 µM,
O=C(CN1C(=O)NC2(CCCC2)C1=O)Nc1nc2ccccc2s1,"inconclusive: 18.4 µM [activator, partial curve, poor fit]",
COc1ccccc1C(=O)Nc1ccnn1C1CCN(Cc2cc(C)c(C)cc2C)CC1,,inactive: -18.4%
COCCCNC(=O)/C=C1\Sc2ccccc2N(Cc2ccccc2F)C1=O,,inactive: 3.31%
Cc1ccc(C)c(Cn2c(=O)cc(C)c3c(C)nn(C)c32)c1,"inconclusive: 2.06 µM [falling, single point]",
CCc1c(C)nc(SCC(=O)Nc2cccc(Br)c2)[nH]c1=O,"inconclusive: 23.1 µM [falling, partial curve, poor fit]",
CC(=O)c1cccc(NC(=O)COc2ccc(S(=O)(=O)N3CCOCC3)cc2)c1,,inactive: -4.98%
COc1ccc(CC(=O)Nc2ccccc2C(C)=O)cc1S(=O)(=O)N1CCOCC1,,inactive: -10.9%
O=C(NNc1ccc(O)cc1)c1ccc(Br)cc1,"inconclusive: 16.4 µM [falling, partial curve, poor fit]",
Cc1cc(N2CCN(C)CC2)nc2ccc(NC(=O)c3ccc(Br)o3)cc12,,inactive: 20.1%
CCn1c(C)c(C)c2cc(C(=O)NCc3cccc(C)c3)ccc21,,inactive: -19.7%
Nc1nnc(-c2ccc(Cl)cc2Cl)s1,"inconclusive: 25.9 µM [activator, single point]",
Cc1ccc(C)c(Cn2cnc3c(oc4ccccc43)c2=O)c1,"inconclusive: 29.1 µM [activator, partial curve, poor fit]",
CCOC(=O)c1ccc(NC(=O)CN2C(=O)NC3(CCC(C)CC3)C2=O)cc1 (stereo unspecified),"inconclusive: 1.46 µM [falling, full curve, poor fit]",
COCCNC(=O)CSc1nc2ccccc2c(=O)n1CCC(=O)N1CCN(c2ccccc2)CC1,"inconclusive: 18.4 µM [falling, partial curve, poor fit]",
O=C(NCCc1c[nH]c2ccccc12)C(=O)NCC1OCCN1S(=O)(=O)c1ccccc1 (stereo unspecified),"inconclusive: 29.1 µM [falling, single point]",
O=C(N/N=C(\CC(=O)c1cccs1)C(F)(F)F)c1ccncc1,"inconclusive: 20.6 µM [activator, single point]",
CN(C)S(=O)(=O)c1cccc(COc2ncnc3c(Cl)cc(Cl)cc23)c1,"inconclusive: 20.6 µM [falling, single point]",
CC(C)c1nc(N2CCN(C(=O)c3ccccc3)CC2)c(C#N)c2c1COC(C)(C)C2,"inconclusive: 29.1 µM [falling, single point]",
Cc1ccc(CNC(=O)Cn2c(=O)n(-c3cccc(Cl)c3)c(=O)c3sc4ccccc4c32)cc1,,inactive: -14.7%
CCCc1ccc2oc(C(=O)NCCN3CCCC(O)C3)c(C)c2c1 (stereo unspecified),"inconclusive: 29.1 µM [activator, single point]",
